PubChem BioAssay AID2685 (National Center for Advancing Translational Sciences (NCATS), 2010)
The campaign covered roughly 320,000 compounds. About 2,100 (0.66%) were called active. The shares of active, inactive and inconclusive entries below differ from those in the screen. Calls follow the shape of the dose curve; as a rule, active = well fitted inhibition curve with a large enough effect in the signal ratio, with a control signal flat (not every such curve was filed as active); inconclusive = small, poorly fitted or top-dose-only effect, or effect the other way, or a change in a side signal; inactive = flat fitted curve, though single readings scatter; the % refers to the signal ratio. A potency beside an inconclusive call is a rough fit, not a confirmed value.

Test: qHTS Assay for Lipid Storage Modulators in Drosophila S3 Cells
Conditions: BODIPY lipid droplet fluorescence, 18-24 h, cells fed with added oleic acid; lipid storage change, negative = inhibition: at 46.1 µM (top of the series) unless noted
In short: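 Laser-scanning cytometry quantifies lipid droplet accumulation (500–530 nm total intensity; droplet/cell object ratio) in oleic acid-fed (400 uM added) Drosophila S3 cells treated with a concentration series. 20 uM Triacsin C defined 100% inhibition.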
% is scaled to controls: 0 for no effect and ±100 for the full control effect; potency is read from the fitted curve at half-maximal effect.

Row | SMILES | lipid storage change, negative = inhibition | Potency
1 | O=C(Nc1cccc(C(F)(F)F)c1)C1CCCN(S(=O)(=O)c2cnc[nH]2)C1 (centres undefined) | inconclusive: 77.2% | –
2 | COc1cccc(/C=N/NC(=O)c2cnn(-c3ccccc3)c2N)c1 | inconclusive: -26.1% | –
3 | COc1ccccc1/C=N\N=C(\N)c1ccccn1 | inconclusive: 18.8% | –
4 | CCOc1ccc(C(=O)N/N=C/c2cccc3cccnc23)cc1 | – | inconclusive: 0.92 µM [falling, full curve, poor fit]
5 | COc1cccc(N(C(=O)Cn2nnc(-c3ccc(C)o3)n2)C(C(=O)NC2CCCC2)c2ccncc2)c1 (centres undefined) | – | inconclusive: 3.26 µM [falling, partial curve, poor fit]
6 | COc1ccc(C)cc1NC(=O)CSc1ccc(-c2cccnc2)nn1 | inconclusive: 3.16% | –
7 | CC(C)[C@H](NC(=O)c1ccccc1)C(=O)OCC(=O)N1CCc2ccccc2C1 | – | inconclusive: 1.16 µM [activator, single point]
8 | Cc1onc(-c2c(F)cccc2Cl)c1C(=O)N1CCCc2ccccc21 | inconclusive: 14.9% | –
9 | Cc1nc(N2CCOCC2)nc(N2CCCCC2)c1[N+](=O)[O-] | – | inconclusive: 20.6 µM [activator, partial curve]
10 | O=C(CN1C(=O)/C(=C/c2ccccc2Cl)SC1=S)NC1C=CS(=O)(=O)C1 (centres undefined) | – | inconclusive: 6.51 µM [falling, single point]
11 | CC(NC(=O)CN1c2cccc3cccc(c23)S1(=O)=O)c1ccc(S(N)(=O)=O)cc1 (centres undefined) | inactive | –
12 | COCc1cc(C)nc(SCC(=O)Nc2cccc(C)c2C)c1C#N | – | inconclusive: 0.0731 µM [rising, full curve]
13 | Fc1ccc(CNCC2CCCO2)cc1 (centres undefined) | – | inconclusive: 16.4 µM [activator, partial curve]
14 | Nc1nc(NCCCN2CCOCC2)nc(NCc2ccccc2)c1[N+](=O)[O-] | inconclusive: 9.59% | –
15 | O=C(NCc1ccco1)c1cccc(Br)c1 | – | inconclusive: 0.58 µM [activator, single point]
16 | CCC(=O)Nc1c(C)n[nH]c1C | inconclusive: -0.781% | –
17 | O=c1[nH]cc(S(=O)(=O)N2CCN(c3cccc(Cl)c3)CC2)c(=O)[nH]1 | inconclusive | –
18 | Cc1ccc(-c2csc(N3CCN(CCCn4c(C(F)(F)F)nc5ccccc54)CC3)n2)cc1 | inconclusive: 20.7% | –
19 | O=C(CSc1nnc(CCCO)n1-c1ccccc1)Nc1nccs1 | inconclusive: -13.2% | –
20 | CCN(NC(=O)C(O)(c1ccc(F)cc1)c1ccc(F)cc1)C(=O)c1ccccc1 | inconclusive: -18.8% | –
21 | COC(=O)c1ccc(C2C(Oc3ccccc3)C(=O)N2CCc2ccc(OC)c(OC)c2)cc1 (centres undefined) | inconclusive: 26.2% | –
22 | N#Cc1cccc(-c2cn(S(=O)(=O)c3ccc(Cl)cc3)nc2N)c1 | – | inconclusive: 0.291 µM [activator, full curve]
23 | Cc1ccc(NC(=O)CSc2nc(=O)n(CCN(C)C)c3c2CCCC3)c(C)c1 | inconclusive: 3.88% | –
24 | Cn1c(=O)cc(OCC(=O)NCCCN2CCN(c3cccc(Cl)c3)CC2)c2ccccc21 | – | inconclusive: 9.2 µM [activator, partial curve]
25 | CCN(Cc1cnn(C)c1)C(=O)C1CCC(=O)N(CCc2ccc(OC)cc2)C1 (centres undefined) | inconclusive: 55.7% | –

Row | SMILES | lipid storage change, negative = inhibition | Potency
26 | COc1cc(F)ccc1S(=O)(=O)NCc1cccnc1 | inconclusive: 21.7% | –
27 | O=C(CN1CCN(S(=O)(=O)c2ccc(F)cc2)CC1)NCc1cccs1 | inconclusive | –
28 | COC(=O)c1ccc(S(=O)(=O)NCc2ccccn2)n1C | inconclusive: -9.81% | –
29 | CCn1c(CC(=O)Nc2ccccc2F)nnc1SCC(=O)N1CCN(c2ccccc2)CC1 | – | inconclusive: 6.51 µM [cytotoxic, single point]
30 | O=C(NC(=S)NNC(=O)c1ccccc1O)c1ccco1 | – | inconclusive: 0.164 µM [falling, full curve]
31 | CCN(CC)C(=O)CSc1nnc(-c2cc3ccccc3cc2O)n1CC | inconclusive: -10.2% | –
32 | CSc1nc(-c2ccccc2)nc(N)c1C(C)=O | – | inconclusive: 0.116 µM [falling, full curve, poor fit]
33 | CC(C)C(NC(=O)c1ccco1)C(=O)OCC(=O)Nc1ccc(C(N)=O)cc1 (centres undefined) | inconclusive: 4.62% | –
34 | CC1CCCC(C)N1C(=O)c1cc(-c2ccco2)on1 (centres undefined) | – | inconclusive: 0.0073 µM [activator, full curve]
35 | COc1cccc(N/C(SCc2ccccc2Cl)=C(/C#N)C(=O)NCc2cccs2)c1 | inconclusive: 9.18% | –
36 | Cc1cccc(N/C=C(\[N+](=O)[O-])S(=O)(=O)c2ccccc2)c1C | – | inconclusive: 29.1 µM [falling, single point]
37 | CSC1=NCCN1C(=O)c1ccc(C)cc1 | inconclusive: -26.5% | –
38 | O=C(c1cncc(Br)c1)N1CCCc2ccccc21 | – | inconclusive: 10.3 µM [activator, partial curve]
39 | CCOC(=O)N1CCN(C(=O)c2nn(-c3cc(OC)cc(OC)c3)c(=O)c3ccccc23)CC1 | inconclusive: 50.1% | –
40 | CC(=O)Nc1cccc(Oc2ncnc3scc(-c4ccc(C)cc4)c23)c1 | inconclusive: -10.8% | –
41 | CCc1ccccc1NC(=O)Nc1cccc(F)c1 | – | inconclusive: 4.11 µM [falling, partial curve]
42 | Cc1cccc(Nc2nc(N)c(C#N)c(CC#N)c2C#N)c1 | – | inconclusive: 3.66 µM [activator, partial curve]
43 | O=C(NCC(=O)N(Cc1cccs1)C(C(=O)NC1CCCC1)c1ccco1)c1cccs1 (centres undefined) | – | inconclusive: 6.51 µM [rising, single point]
44 | Cc1cc(C)n(CC(O)CN2c3ccccc3Sc3ccccc32)n1 (centres undefined) | inconclusive: 12.1% | –
45 | Cc1cc(C)c(S(=O)(=O)N(C)Cc2cnn(C)c2)c(C)c1 | – | inconclusive: 0.366 µM [falling, full curve]
46 | N=C1/C(=C/c2ccco2)C(=O)N=C2SC(CC(=O)N3CCCC3)=NN12 | – | inconclusive: 0.731 µM [falling, full curve]
47 | O=S(=O)(Nc1cccnc1)c1cccc(C(F)(F)F)c1 | inconclusive: 73.4% | –
48 | COc1cc(CO)ccc1OCc1nnnn1-c1ccc(C)cc1 | – | inconclusive: 4.61 µM [falling, full curve]
49 | CC1CCCCC1NCc1cccc([N+](=O)[O-])c1 (centres undefined) | – | inconclusive: 0.58 µM [falling, full curve]
50 | Cn1c2c(c3ccccc31)CCSC2=O | inconclusive: 23.5% | –

Single values from the list.
Value for CCN(NC(=O)C(O)(c1ccc(F)cc1)c1ccc(F)cc1)C(=O)c1ccccc1 under lipid storage change, negative = inhibition: inconclusive: -18.8%
Value for COCc1cc(C)nc(SCC(=O)Nc2cccc(C)c2C)c1C#N under Potency: inconclusive: 0.0731 µM [rising, full curve]
Value for CC1CCCCC1NCc1cccc([N+](=O)[O-])c1 (centres undefined) under Potency: inconclusive: 0.58 µM [falling, full curve]

Going on with the list:

Row | SMILES | lipid storage change, negative = inhibition | Potency
51 | CCCCCCCc1c(O)nc(SCCN2CCOCC2)[nH]c1=O | inactive | –
52 | C=CCN1C(=O)C(Cc2ccc(OCC)cc2)S/C1=N\N=C\c1cccs1 (centres undefined) | inconclusive: 312% | –
53 | Cc1cccc(NC(=O)CNC(=O)Cc2ccc(S(=O)(=O)N3CCOCC3)s2)c1C | – | inconclusive: 14.6 µM [activator, partial curve]
54 | O=C(CSc1n[nH]c(-c2ccncc2)n1)Nc1ccccn1 | inconclusive: 14.4% | –
55 | CC1=NOC(=O)/C1=C\c1ccc(-c2ccccc2Br)o1 | – | inconclusive: 29.1 µM [falling, single point]
56 | COc1ccc(C2(c3ccc(OC(C)=O)cc3OC(C)=O)CC(c3ccccc3)NC(=S)N2)cc1 (centres undefined) | inconclusive: -5.65% | –
57 | O=C(Nc1ccc2c(c1)nc1n2CCCCC1)c1cc(S(=O)(=O)N2CCOCC2)ccc1Cl | inconclusive: 21.3% | –
58 | O=C(CN1CCN(Cc2ccccc2)CC1)N=Nc1c(O)[nH]c2ccccc12 | inconclusive: 0.757% | –
59 | COCCCNc1nc2cc(OC)c(OC)cc2c2nc(-c3ccccc3)nn12 | – | inconclusive: 29.1 µM [cytotoxic, single point]
60 | Cc1ccc(NC(=S)Nc2cccc3cnccc23)cc1C | inconclusive: 68.8% | –
61 | COc1ccc(CNC(=O)C(c2ccco2)N(C(=O)c2snc(C(N)=O)c2N)c2cccc(OC)c2)cc1 (centres undefined) | – | inconclusive: 0.206 µM [falling, full curve]
62 | COCc1cc(C)nc(OCC(=O)N/N=C/c2ccc(OC)c(OC)c2)c1C#N | inconclusive: -16.1% | –
63 | COc1ccccc1-n1c(SC(C)C(=O)NCC2CCCO2)nc2cc(Cl)ccc2c1=O (centres undefined) | inconclusive | –
64 | Cc1ccc(NC(=O)CSc2nnc(-c3cc(C)on3)o2)cc1 | inconclusive: -4.71% | –
65 | COc1cccc(N(C(=O)c2snc(C(N)=O)c2N)C(C(=O)NCC2CCCO2)c2ccc3ncccc3c2)c1 (centres undefined) | – | inconclusive: 0.13 µM [falling, partial curve, poor fit]
66 | O=C(Nc1nccs1)c1ccc(S(=O)(=O)c2ccccc2)cc1 | inconclusive: 9.36% | –
67 | O=C(c1cccnc1)N1CCN(CCCc2ccccc2)CC1 | – | inconclusive: 29.1 µM [activator, partial curve]
68 | COc1cc2c3c(c1OC)C1(C=CC(=O)C=C1)CC3N(C(=O)CCC(=O)O)CC2 (centres undefined) | – | inconclusive: 0.116 µM [activator, full curve, poor fit]
69 | CCCCOC(=O)CNc1nnc(SCC(=O)OCC)[nH]c1=O | inconclusive: -29.6% | –
70 | COc1ccc(N(C)S(=O)(=O)c2cccc(C(=O)Nc3ccc4c(c3)OCCO4)c2)cc1 | inconclusive: 22.2% | –
71 | O=C(NC1CCCC1)C(c1ccc(F)cc1)N(Cc1ccc(F)cc1)C(=O)CCl (centres undefined) | inconclusive: 23.2% | –
72 | Cc1c(NC(=O)C(C#N)=C2CCCCC2)c(=O)n(-c2ccccc2)n1C | inconclusive: -45.6% | –
73 | COc1cccc(-c2nn(-c3ccc(C)cc3)cc2C(=O)N(C)CC(=O)Nc2cccc(F)c2)c1 | – | active: 6.51 µM
74 | O=[N+]([O-])c1ccc(Oc2ccc(S(=O)(=O)N3CCOCC3)cn2)cc1 | inconclusive: 4.2% | –

Structural class: the entries above containing bromine.
Row | SMILES | lipid storage change, negative = inhibition | Potency
15 | O=C(NCc1ccco1)c1cccc(Br)c1 | – | inconclusive: 0.58 µM [activator, single point]
38 | O=C(c1cncc(Br)c1)N1CCCc2ccccc21 | – | inconclusive: 10.3 µM [activator, partial curve]
55 | CC1=NOC(=O)/C1=C\c1ccc(-c2ccccc2Br)o1 | – | inconclusive: 29.1 µM [falling, single point]
